Measurements reported in the supplement of paper PMC12578635.
The list shows a part of the results. Cut-off read from the data, not from the text of the source: active = 150% or more and inactive = the rest. Most values come without repeats; read them as rough.

What follows are compounds tested on Staphylococcus aureus JE2-lux inside RAW 264.7 macrophages (assay: intracellular bacterial bioluminescence relative to DMSO vehicle; higher = higher intracellular bacterial metabolic activity). Conditions: 10 µM; treatment time 4 h; gentamicin 50 µg/ml.

Intracellular bacterial bioluminescence, inactive:
CCN(CC)C(=O)CSc1ccccc1[N+](=O)[O-] 97.1%, O=C(NCC(c1ccc(Cl)cc1)N1CCCCC1)c1cc(-c2ccc3c(c2)OCCO3)on1 (stereo unspecified) 95.5%, CCN(CC)c1cc(CNC(=O)Nc2cc(OC)cc(OC)c2)ccn1 70.5%, CCN1CCN(C(=O)c2nn(-c3ccc(F)cc3)c3c(=O)n(C)cnc23)CC1 99%, COc1cccc2c(=O)cc(C)n(CC(=O)Nc3ccc(Br)cc3)c12 35.6%, O=C(CSc1ccc(-c2ccc(Cl)cc2)nn1)NCCc1c[nH]c2ccccc12 80.3%, CCOc1ccc(NC(=O)COc2cccc3c2CCN(C)C3=O)cc1 55.2%, COc1cc(/C=N/NC(=O)CN2CCOCC2)ccc1O 110%, O=C1Cc2cc(NC(=O)c3cc4ccccc4oc3=O)ccc2N1 56.4%, CC(=O)c1ccc(NC(=O)CC2Nc3ccccc3NC2=O)cc1 (stereo unspecified) 27.6%, CC(C)N1CCC(CNC(=O)c2ccc3c(c2)NC(=O)C(C)(C)O3)CC1 113%, Cc1nc2nc(Cc3cccc(F)c3)nn2c(N2CCN(c3ccccn3)CC2)c1C 47.2%, Fc1ccc(-c2csc3ncnc(Sc4nnnn4-c4ccccc4)c23)cc1 68.7%, Cc1ccccc1-n1cc(-c2ccccc2)c2c(NCCCN3CCOCC3)ncnc21 71.2%, COc1ccc(C2(NC(=O)C3OCOc4ccccc43)CCCCC2)cc1 (stereo unspecified) 54.2%, COc1cccc(CNC(=O)CSc2nnc(-c3cc4ccccc4[nH]3)o2)c1 68.2%, CCN1CCN(CC(=O)Nc2ccc(Cl)c(Cl)c2)C(=O)C1=O 9.12%, O=S(=O)(Nc1ccc2cn[nH]c2c1)c1ccc(Br)cc1 102%, C#CCn1/c(=N/C(=O)c2cccc([N+](=O)[O-])c2)sc2cccc(F)c21 109%, COC(=O)c1sc(-c2ccccc2)cc1NC(=O)c1ccc([N+](=O)[O-])s1 100%, CCCCSc1nc2c(cnn2-c2ccc(C)c(C)c2)c(=O)[nH]1 83%, O=C(CN1C(=O)c2ccccc2S1(=O)=O)NCc1ccc2c(c1)OCO2 125%, Cc1nc(OCC(=O)NC(C)(C)C)c2c(-c3cccc(F)c3)noc2n1 109%, Cc1cc(NC2CCCC2)n2ncc(-c3ccc(F)cc3)c2n1 101%, Cc1nc(SCC(=O)NCc2ccco2)[nH]c(=O)c1C 111%, O=C(NC(=O)c1ccc(F)cc1)Nc1ccncc1 110%, CCn1cc(SCC(=O)Nc2ccc(OC)cc2)c2ccccc21 81.9%, COc1ccc(CN2C(=O)c3cccc4cccc(c34)C2=O)cc1 122%, O=C(Nc1ccc(F)cc1F)c1cccnc1-c1ccsc1 66.1%, CCOC(=O)c1cc2c(=O)n3ccccc3nc2n(CCc2ccccc2)/c1=N\C(=O)c1ccccc1 63.1%, CCOC(=O)c1ccc(/N=c2\oc3ccc(OC)cc3cc2C(N)=O)cc1 110%, COc1ccccc1CCNC(=O)C(=O)NCC1OCCN1S(=O)(=O)c1ccc([N+](=O)[O-])cc1 (stereo unspecified) 57.3%, Cc1ccc2nnc(-c3ccccc3)c(C(=O)Nc3ccc(F)cc3)c2c1 117%, O=C(CSc1ncnc2c1sc1nc3ccccc3cc12)c1ccc2c(c1)OCCO2 108%, Cc1cc2c(=O)n(Cc3ccco3)c(SCC(=O)Nc3ccc4c(c3)OCO4)nc2s1 91.6%, CN(C)CCCNc1ncnc2sc3c(c12)CCCC3 120%, CC1CN(C(=O)c2ncoc2-c2ccc(F)cc2)CC(C)O1 (stereo unspecified) 87.5%, O=C(O)c1ccc(C(=O)NCC2CCCO2)c(C(=O)O)c1 (stereo unspecified) 120%, O=C(Nc1cc(-c2cccs2)nnc1O)C1CCC1 25%, CCNC(=O)c1n[nH]c2c1CCc1cc(OC)ccc1-2 78.9%, Cc1ccc(N2CC(C(=O)N3CCN(c4ncnc5c4nnn5-c4ccc(C)cc4)CC3)CC2=O)cc1 (stereo unspecified) 91.7%, O=C(O)CCn1nc(Nc2ccccc2)n(-c2ccccc2)c1=S 100%, COCCn1c(SCC(=O)N2CCc3ccccc32)nc2cccnc21 68.3%, COc1ccc2nc(NC(=O)CSc3nnc4nc(C)cc(C)n34)sc2c1 67.6%, CSc1ccc(NC(=O)NCCc2ccncc2)cc1 96.3%, CC(C)c1cc(N2CCN(C(=O)c3ccco3)CC2)n2c(nc3ccccc32)c1C#N 96.3%
